Test results published in the supplement of paper PMC12067093, “Discovery and optimisation of a covalent ligand for TRIM25 and its application to targeted protein ubiquitination” (Chemical Science, 2025).
Some of the results follow.

By UniProt entry, the sequences of proteins in these tests, tags left out. Where a name states a change or a piece, a line headed by the entry shows the natural chain unless it says otherwise.
UniProt P05771, whole entry, looked up: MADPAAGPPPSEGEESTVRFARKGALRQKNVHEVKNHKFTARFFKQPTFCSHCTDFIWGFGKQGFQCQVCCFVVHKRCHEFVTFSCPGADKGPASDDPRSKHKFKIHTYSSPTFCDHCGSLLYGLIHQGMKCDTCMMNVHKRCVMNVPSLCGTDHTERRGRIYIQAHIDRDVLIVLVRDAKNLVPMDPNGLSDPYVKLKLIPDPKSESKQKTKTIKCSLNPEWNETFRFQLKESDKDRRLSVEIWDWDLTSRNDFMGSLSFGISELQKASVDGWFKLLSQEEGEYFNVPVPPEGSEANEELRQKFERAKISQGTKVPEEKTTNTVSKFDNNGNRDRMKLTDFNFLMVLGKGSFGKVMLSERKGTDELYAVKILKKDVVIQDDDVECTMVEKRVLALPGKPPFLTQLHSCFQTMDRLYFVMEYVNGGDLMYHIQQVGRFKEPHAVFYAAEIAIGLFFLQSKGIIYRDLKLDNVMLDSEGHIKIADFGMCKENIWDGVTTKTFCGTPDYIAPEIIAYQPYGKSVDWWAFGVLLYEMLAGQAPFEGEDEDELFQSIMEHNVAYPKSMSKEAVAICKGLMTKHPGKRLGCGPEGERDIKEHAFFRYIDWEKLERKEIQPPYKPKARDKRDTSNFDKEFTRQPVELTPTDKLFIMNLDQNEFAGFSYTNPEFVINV
UniProt Q5JSZ5: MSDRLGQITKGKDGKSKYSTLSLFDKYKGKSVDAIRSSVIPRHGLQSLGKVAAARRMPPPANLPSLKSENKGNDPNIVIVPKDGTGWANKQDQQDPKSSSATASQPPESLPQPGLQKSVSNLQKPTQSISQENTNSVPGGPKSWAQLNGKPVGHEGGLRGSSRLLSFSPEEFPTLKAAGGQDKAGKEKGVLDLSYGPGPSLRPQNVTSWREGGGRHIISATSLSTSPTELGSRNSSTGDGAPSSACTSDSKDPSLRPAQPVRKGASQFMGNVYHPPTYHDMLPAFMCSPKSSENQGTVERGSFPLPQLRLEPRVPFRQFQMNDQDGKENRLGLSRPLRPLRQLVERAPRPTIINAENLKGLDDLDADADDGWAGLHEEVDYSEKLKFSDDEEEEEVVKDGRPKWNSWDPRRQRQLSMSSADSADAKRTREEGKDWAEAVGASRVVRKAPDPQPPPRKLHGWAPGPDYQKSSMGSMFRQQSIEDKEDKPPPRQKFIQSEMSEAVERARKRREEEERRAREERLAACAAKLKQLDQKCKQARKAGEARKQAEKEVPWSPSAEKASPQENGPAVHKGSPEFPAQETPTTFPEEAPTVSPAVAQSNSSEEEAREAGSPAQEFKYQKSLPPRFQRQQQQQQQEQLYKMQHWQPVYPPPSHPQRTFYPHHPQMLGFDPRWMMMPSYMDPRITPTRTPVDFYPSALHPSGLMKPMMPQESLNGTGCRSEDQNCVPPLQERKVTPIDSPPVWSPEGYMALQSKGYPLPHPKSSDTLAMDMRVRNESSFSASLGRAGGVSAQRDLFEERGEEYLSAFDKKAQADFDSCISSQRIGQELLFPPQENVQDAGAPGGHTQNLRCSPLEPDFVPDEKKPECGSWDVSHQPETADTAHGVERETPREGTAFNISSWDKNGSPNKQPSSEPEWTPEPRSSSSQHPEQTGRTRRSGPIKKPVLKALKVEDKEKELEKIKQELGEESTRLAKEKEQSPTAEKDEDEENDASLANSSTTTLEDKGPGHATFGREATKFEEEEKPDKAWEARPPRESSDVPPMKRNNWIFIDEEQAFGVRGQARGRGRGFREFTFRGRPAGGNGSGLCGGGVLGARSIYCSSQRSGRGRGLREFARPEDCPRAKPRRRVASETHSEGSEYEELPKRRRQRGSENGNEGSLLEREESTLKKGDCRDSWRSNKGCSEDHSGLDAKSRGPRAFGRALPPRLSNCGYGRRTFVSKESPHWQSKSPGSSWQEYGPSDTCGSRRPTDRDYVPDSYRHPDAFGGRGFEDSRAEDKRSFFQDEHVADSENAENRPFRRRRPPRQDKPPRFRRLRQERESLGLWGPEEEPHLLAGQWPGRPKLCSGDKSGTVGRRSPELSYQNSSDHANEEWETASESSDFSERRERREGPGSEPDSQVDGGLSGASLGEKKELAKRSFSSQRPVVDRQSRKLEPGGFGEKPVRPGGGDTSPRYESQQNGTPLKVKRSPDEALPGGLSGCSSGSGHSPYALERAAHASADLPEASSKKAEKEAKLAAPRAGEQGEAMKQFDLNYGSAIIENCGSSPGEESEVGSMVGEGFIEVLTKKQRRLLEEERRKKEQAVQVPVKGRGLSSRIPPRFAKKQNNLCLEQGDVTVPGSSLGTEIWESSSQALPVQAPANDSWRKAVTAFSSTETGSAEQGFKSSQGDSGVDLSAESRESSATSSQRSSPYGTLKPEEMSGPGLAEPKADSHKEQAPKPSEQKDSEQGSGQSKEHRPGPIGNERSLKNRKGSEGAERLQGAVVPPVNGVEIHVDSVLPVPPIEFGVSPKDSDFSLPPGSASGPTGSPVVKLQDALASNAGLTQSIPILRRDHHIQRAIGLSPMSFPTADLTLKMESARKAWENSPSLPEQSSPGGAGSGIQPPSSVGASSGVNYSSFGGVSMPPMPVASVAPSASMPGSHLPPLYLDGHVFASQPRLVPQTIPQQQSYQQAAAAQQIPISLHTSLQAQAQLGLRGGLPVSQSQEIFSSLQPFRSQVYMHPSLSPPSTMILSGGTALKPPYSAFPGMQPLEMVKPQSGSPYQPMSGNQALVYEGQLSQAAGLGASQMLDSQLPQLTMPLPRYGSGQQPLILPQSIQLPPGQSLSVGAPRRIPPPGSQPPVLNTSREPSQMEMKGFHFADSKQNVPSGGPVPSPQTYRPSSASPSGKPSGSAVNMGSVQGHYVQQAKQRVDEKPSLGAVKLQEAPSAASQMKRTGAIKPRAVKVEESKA
UniProt Q99873, whole entry, looked up: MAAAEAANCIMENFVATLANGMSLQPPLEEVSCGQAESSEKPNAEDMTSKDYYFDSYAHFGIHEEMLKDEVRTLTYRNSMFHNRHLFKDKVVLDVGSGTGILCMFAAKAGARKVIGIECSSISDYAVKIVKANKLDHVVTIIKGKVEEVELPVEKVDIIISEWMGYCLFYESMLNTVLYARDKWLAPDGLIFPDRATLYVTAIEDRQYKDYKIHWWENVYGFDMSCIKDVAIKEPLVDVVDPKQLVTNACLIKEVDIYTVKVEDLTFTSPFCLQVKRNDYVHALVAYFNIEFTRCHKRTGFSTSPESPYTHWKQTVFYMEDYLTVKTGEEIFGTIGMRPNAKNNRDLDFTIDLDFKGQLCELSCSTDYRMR
UniProt O14744, whole entry, looked up: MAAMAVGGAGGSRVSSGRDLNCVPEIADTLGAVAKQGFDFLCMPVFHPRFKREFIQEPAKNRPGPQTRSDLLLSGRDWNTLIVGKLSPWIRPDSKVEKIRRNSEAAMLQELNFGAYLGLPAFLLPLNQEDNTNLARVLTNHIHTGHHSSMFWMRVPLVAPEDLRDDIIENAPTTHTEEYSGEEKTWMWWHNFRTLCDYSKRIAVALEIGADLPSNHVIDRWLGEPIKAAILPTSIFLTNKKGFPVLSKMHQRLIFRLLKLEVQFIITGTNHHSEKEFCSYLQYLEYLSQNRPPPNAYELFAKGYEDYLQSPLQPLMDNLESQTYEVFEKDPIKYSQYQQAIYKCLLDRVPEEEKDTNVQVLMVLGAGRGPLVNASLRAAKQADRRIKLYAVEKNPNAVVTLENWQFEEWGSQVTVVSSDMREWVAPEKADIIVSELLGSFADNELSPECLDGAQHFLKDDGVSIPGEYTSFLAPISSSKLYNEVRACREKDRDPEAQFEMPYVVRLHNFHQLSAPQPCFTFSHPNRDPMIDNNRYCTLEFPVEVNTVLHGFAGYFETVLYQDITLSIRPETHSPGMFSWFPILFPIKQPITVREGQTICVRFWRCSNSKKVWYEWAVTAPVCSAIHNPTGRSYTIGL
UniProt P49643: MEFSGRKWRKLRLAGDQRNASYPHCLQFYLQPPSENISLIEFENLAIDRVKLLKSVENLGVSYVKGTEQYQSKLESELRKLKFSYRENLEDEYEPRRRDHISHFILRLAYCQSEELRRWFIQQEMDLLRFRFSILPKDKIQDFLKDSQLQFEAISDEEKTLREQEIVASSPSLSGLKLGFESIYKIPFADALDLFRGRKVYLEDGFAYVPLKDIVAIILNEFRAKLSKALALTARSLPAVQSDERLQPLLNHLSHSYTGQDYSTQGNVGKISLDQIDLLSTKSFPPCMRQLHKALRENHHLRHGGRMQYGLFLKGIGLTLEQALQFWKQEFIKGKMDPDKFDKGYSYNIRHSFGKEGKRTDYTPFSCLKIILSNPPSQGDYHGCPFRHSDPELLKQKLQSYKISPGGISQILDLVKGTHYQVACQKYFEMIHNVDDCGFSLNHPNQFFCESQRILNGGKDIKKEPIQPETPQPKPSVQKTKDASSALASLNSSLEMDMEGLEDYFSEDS
UniProt P24158: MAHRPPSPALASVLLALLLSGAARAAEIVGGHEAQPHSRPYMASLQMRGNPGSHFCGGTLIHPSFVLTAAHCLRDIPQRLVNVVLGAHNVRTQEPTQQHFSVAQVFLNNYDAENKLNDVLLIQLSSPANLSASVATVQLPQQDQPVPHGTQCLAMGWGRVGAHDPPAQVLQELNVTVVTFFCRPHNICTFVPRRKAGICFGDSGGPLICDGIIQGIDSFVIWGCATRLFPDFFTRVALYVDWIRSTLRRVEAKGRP
UniProt P60891: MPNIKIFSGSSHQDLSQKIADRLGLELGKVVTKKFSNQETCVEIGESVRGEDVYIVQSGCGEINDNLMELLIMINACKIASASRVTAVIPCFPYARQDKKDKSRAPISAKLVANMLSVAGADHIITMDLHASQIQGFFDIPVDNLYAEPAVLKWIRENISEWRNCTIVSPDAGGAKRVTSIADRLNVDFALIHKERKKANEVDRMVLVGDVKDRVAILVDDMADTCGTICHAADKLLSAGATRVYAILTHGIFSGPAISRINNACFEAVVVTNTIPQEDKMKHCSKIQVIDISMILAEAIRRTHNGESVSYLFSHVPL
UniProt Q05655: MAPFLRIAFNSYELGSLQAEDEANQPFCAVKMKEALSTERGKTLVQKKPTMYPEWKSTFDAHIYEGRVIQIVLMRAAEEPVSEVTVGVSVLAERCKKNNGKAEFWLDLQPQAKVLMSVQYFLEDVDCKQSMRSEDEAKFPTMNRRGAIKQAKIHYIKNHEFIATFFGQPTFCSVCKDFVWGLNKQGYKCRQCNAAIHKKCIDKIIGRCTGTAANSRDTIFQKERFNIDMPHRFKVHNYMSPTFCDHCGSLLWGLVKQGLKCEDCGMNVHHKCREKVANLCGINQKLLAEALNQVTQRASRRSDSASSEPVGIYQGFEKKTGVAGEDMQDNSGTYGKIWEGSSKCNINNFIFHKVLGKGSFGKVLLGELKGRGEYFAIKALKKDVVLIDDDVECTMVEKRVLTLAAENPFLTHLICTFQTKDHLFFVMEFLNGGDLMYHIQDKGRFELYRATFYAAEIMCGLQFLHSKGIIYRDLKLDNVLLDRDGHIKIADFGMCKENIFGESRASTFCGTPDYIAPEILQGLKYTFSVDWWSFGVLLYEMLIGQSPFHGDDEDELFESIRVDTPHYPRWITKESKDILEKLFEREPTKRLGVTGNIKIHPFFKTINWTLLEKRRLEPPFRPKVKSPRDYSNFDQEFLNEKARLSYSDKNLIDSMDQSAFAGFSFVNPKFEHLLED
UniProt P13727: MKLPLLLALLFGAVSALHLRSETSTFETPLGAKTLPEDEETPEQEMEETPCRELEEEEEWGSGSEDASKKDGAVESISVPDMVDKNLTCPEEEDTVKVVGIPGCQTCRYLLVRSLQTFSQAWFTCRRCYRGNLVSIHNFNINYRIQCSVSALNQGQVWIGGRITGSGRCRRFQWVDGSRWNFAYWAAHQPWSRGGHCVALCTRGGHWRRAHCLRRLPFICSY

Compound: Cc1cc(ccc1-c1ccccc1)C(=O)N1CCCN(CC1)C(=O)CCl [compound 10]
Assay: probe-labelled cysteine peptide fold change vs DMSO (competition) (log2 fold change); higher = less target engagement (more negative = stronger competition)
Settings: THP-1, incubation time: 4 h
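Note: competitive profiling in live THP-1 cells: cysteine peptides tagged with an iodoacetamide desthiobiotin (IA-DTB) probe, intensity after compound treatment relative to DMSO-treated cells.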

Target | probe-labelled cysteine peptide fold change (10 µM) | probe-labelled cysteine peptide fold change (50 µM)
PRPF8_Q6P2Q9_2223_TIIITCSFTPGSCTLTAYK (UniProt Q6P2Q9) | 0.00546 | 0.3
PRKDC_P78527_373_GYGLFAGPCK (UniProt P78527) | -0.037 | 0.131
PRR12_Q9ULL5_112_FVPLTSICFPDSLLQDEER (UniProt Q9ULL5) | 0.0521 | -0.301
PRKCB_P05771_78+86_CHEFVTFSCPGADK (UniProt P05771) | -0.133 | -0.364
PRRC2B_Q5JSZ5_819_AQADFDSCISSQR (UniProt Q5JSZ5) | -0.314 | -0.048
PRKDC_P78527_1183_WLLAHCGRPQTECR (UniProt P78527) | -0.312 | 0.169
PRKCB_P05771_71_QGFQCQVCCFVVHKR (UniProt P05771) | -0.282 | -0.63
PRKDC_P78527_1742_FNNYVDCMK (UniProt P78527) | 0.239 | -0.0715
PRKDC_P78527_795_DILPCLDGYLK (UniProt P78527) | 0.0845 | 0.159
PRMT9_Q6P2P2_310_VIPASAVIFGMAVECAEIR (UniProt Q6P2P2) | 0.425 | 0.559
PSMA1_P25786_92_QECLDSR (UniProt P25786) | -0.082 | -0.0433
PRKDC_P78527_42_GLGQECVLSSSPAVLALQTSLVFSR (UniProt P78527) | 0.213 | 0.574
PRKAR2A_P13861_134_LQEACK (UniProt P13861) | -0.239 | -0.0313
PRPF4_O43172_441_RCVYTIPAHQNLVTGVK (UniProt O43172) | -0.0522 | -0.2
PSIP1_O75475_373_CIEALDELASLQVTMQQAQK (UniProt O75475) | 0.338 | 0.384
PRMT1_Q99873_250_QLVTNACLIK (UniProt Q99873) | -0.0181 | 0.0238
PRPF38A_Q8NAV1_158_VCDIILPR (UniProt Q8NAV1) | -0.0334 | -0.0281
PRKDC_P78527_1455_LAAVVSACK (UniProt P78527) | -0.175 | 0.0415
PRPF4_O43172_237_SLNNFCSQIGDDRPISYCHFSPNSK (UniProt O43172) | 0.0328 | -0.157
PRKCSH_P14314_56_GVSLTNHHFYDESKPFTCLDGSATIPFDQVNDDYCDCK (UniProt P14314) | -0.131 | -0.981
PRKDC_P78527_2342_NILEESLCELVAK (UniProt P78527) | -0.0245 | 0.199

Target | probe-labelled cysteine peptide fold change (10 µM) | probe-labelled cysteine peptide fold change (50 µM)
PRKDC_P78527_1127+1128_SLGTIQQCCDAIDHLCR (UniProt P78527) | 0.347 | 0.0684
PRMT9_Q6P2P2_206_AGAHSVYACELSK (UniProt Q6P2P2) | -0.229 | 0.391
PRMT5_O14744_518_LHNFHQLSAPQPCFTFSHPNRDPMIDNNR (UniProt O14744) | 0.0344 | 0.137
PRIM2_P49643_449_YFEMIHNVDDCGFSLNHPNQFFCESQR (UniProt P49643) | -0.247 | -0.368
PRKDC_P78527_3347_IIANALSSEPACLAEIEEDK (UniProt P78527) | -0.0765 | 0.0937
PRKDC_P78527_2093_HECMAPLTALVK (UniProt P78527) | -0.124 | 0.134
PRKDC_P78527_2435_VCLDIIYK (UniProt P78527) | 0.095 | 0.101
PRPF6_O94906_550_HTWMEDADSCVAHNALECAR (UniProt O94906) | 0.0185 | 0.164
PRKCB_P05771_78_CHEFVTFSCPGADK (UniProt P05771) | 0.0418 | 0.28
PRTN3_P24158_56_GNPGSHFCGGTLIHPSFVLTAAHCLR (UniProt P24158) | -0.056 | -0.165
PRPS1_P60891_41_KFSNQETCVEIGESVR (UniProt P60891) | 0.0818 | 0.329
PRKDC_P78527_1176_WLLAHCGR (UniProt P78527) | -0.53 | 0.383
PRKCB_P05771_151_CVMNVPSLCGTDHTER (UniProt P05771) | -0.0318 | -0.00516
PRRC2C_Q9Y520_177_ETNDDNYGPGPSLRPPNVACWR (UniProt Q9Y520) | -0.177 | -0.309
PRKDC_P78527_3781_VEQLFQVMNGILAQDSACSQR (UniProt P78527) | 0.0493 | -0.0398
PRKDC_P78527_4106_CLMDQATDPNILGR (UniProt P78527) | -0.313 | -0.125
PRKCD_Q05655_393_DVVLIDDDVECTMVEKR (UniProt Q05655) | -0.615 | -0.761
PRMT1_Q99873_103_VVLDVGSGTGILCMFAAK (UniProt Q99873) | 0.0776 | 0.00186
PRMT7_Q9NVM4_368_QMRPVCDCQAHLLWNRPR (UniProt Q9NVM4) | 0.19 | -0.0386
PRPF8_Q6P2Q9_2116_FICISDLR (UniProt Q6P2Q9) | 0.018 | 0.162
PRKDC_P78527_4061_LAGANPAVITCDELLLGHEK (UniProt P78527) | -0.259 | 0.246

Target | probe-labelled cysteine peptide fold change (10 µM) | probe-labelled cysteine peptide fold change (50 µM)
PRRC2C_Q9Y520_620_QESENSCNK (UniProt Q9Y520) | 0.000148 | 0.376
PRKDC_P78527_1507_QCLPSLDLSCK (UniProt P78527) | 0.0976 | -1.07
PRKDC_P78527_25_CGAALAGHQLIR (UniProt P78527) | -0.441 | -0.13
PRKDC_P78527_1791_RGSCVTQVGLLESVYEMFRK (UniProt P78527) | -0.174 | -0.301
PRKDC_P78527_1127_SLGTIQQCCDAIDHLCR (UniProt P78527) | -0.0104 | 0.103
PRKDC_P78527_111_NTCTSVYTK (UniProt P78527) | -0.255 | 0.0765
PRPF4_O43172_399_CIMFLEGHLK (UniProt O43172) | 0.0903 | 0.0696
PRKDC_P78527_3281_DDWLVSWVQSYCR (UniProt P78527) | 0.0731 | -0.379
PRIM1_P49642_170_GVHCWVCDESVR (UniProt P49642) | 0.179 | 0.421
PRKCD_Q05655_344_CNINNFIFHK (UniProt Q05655) | -0.471 | -0.223
PRKCA_P17252_132+135_CDTCDMNVHK (UniProt P17252) | -0.182 | -0.425
PRKRA_O75569_77_VTVGDITCTGEGTSK (UniProt O75569) | 0.0514 | -0.138
PRMT5_O14744_344_CLLDRVPEEEK (UniProt O14744) | -0.0136 | -0.015
PRIM2_P49643_367_RTDYTPFSCLK (UniProt P49643) | 0.0621 | -0.0448
PRKCD_Q05655_172+175_NHEFIATFFGQPTFCSVCK (UniProt Q05655) | -0.461 | -0.571
PRMT1_Q99873_360_GQLCELSCSTDYR (UniProt Q99873) | 0.0589 | -0.365
PRPF8_Q6P2Q9_1896_GSELQLPFQACLK (UniProt Q6P2Q9) | 0.0122 | 0.217
PRICKLE3_O43900_246_HHAECLRPR (UniProt O43900) | -0.147 | -0.245
PRPF3_O43395_37_RVLGFSEPTVVTAALNCVGK (UniProt O43395) | -0.112 | 0.0437
PRKCA_P17252_132_CDTCDMNVHK (UniProt P17252) | -0.00159 | -0.156
PRKCB_P05771_86_CHEFVTFSCPGADK (UniProt P05771) | 0.0861 | 0.103

Target | probe-labelled cysteine peptide fold change (10 µM) | probe-labelled cysteine peptide fold change (50 µM)
PSMA2_P25787_213_ESFEGQMTEDNIEVGICNEAGFRR (UniProt P25787) | -0.13 | -0.258
PRKCI_P41743_507_LGCHPQTGFADIQGHPFFR (UniProt P41743) | -0.164 | 0.104
PRKDC_P78527_2342_KNILEESLCELVAK (UniProt P78527) | -0.182 | -0.0562
PRMT5_O14744_622_VWYEWAVTAPVCSAIHNPTGR (UniProt O14744) | 0.25 | 0.5
PRKCB_P05771_67_QGFQCQVCCFVVHK (UniProt P05771) | -0.0411 | 0.0253
PRKDC_P78527_3293_SQGCSEQVLTVLK (UniProt P78527) | 0.0734 | -0.119
PRKDC_P78527_1432_ITAQSIEELCAVNLYGPDAQVDR (UniProt P78527) | -0.186 | -0.242
PRKDC_P78527_3683_ECSPWMSDFKVEFLR (UniProt P78527) | -0.315 | -0.935
PRKD2_Q9BZL6_861_DLGGACPPQDHDMQGLAER (UniProt Q9BZL6) | -0.804 | -0.14
PRKDC_P78527_2093_DPTVHDDVLELEMDELNRHECMAPLTALVK (UniProt P78527) | -0.156 | -0.199
PRPF8_Q6P2Q9_435_EHCPAGQPVK (UniProt Q6P2Q9) | -0.0827 | 0.14
PRRC2C_Q9Y520_620_QESENSCNKEEEPVFTR (UniProt Q9Y520) | 0.0581 | -0.121
PRRC2B_Q5JSZ5_1121_EFARPEDCPR (UniProt Q5JSZ5) | -0.251 | -0.429
PRMT1_Q99873-3_15_AAAEAANCIMEVSCGQAESSEK (UniProt Q99873) | 0.199 | 0.146
PRKDC_P78527_1791_RGSCVTQVGLLESVYEMFR (UniProt P78527) | -0.142 | -0.151
PRPF19_Q9UMS4_5+16_SLICSISNEVPEHPCVSPVSNHVYER (UniProt Q9UMS4) | 0.0585 | 0.103
PRG2_P13727_201_GGHCVALCTR (UniProt P13727) | -0.0284 | 0.216
PRKCB_P05771_53_QPTFCSHCTDFIWGFGK (UniProt P05771) | -0.215 | -0.115
PRKCB_P05771_386_DVVIQDDDVECTMVEK (UniProt P05771) | 0.0259 | 0.242
PRKDC_P78527_3683_ECSPWMSDFK (UniProt P78527) | 0.0132 | 0.0914
PRPS1_P60891_165_NCTIVSPDAGGAK (UniProt P60891) | 0.0905 | 0.0728

As a working copy, some entries already given:
Target | probe-labelled cysteine peptide fold change (10 µM) | probe-labelled cysteine peptide fold change (50 µM)
PRG2_P13727_201_GGHCVALCTR (UniProt P13727) | -0.0284 | 0.216
PRKCB_P05771_53_QPTFCSHCTDFIWGFGK (UniProt P05771) | -0.215 | -0.115
PRKCB_P05771_386_DVVIQDDDVECTMVEK (UniProt P05771) | 0.0259 | 0.242
PRKDC_P78527_3683_ECSPWMSDFK (UniProt P78527) | 0.0132 | 0.0914
